Data as given in the supplement of paper PMC8007513.
The other results are listed elsewhere or left out. Single values are uncertain, as repeats are few or missing.

test system: Saccharomyces cerevisiae BY4743; experiment: growth (OD600) with compound + IPBC relative to untreated control; higher = less growth inhibition; conditions: compound concentration: 133 uM; IPBC concentration: 0.5 ug/ml; 20 h
Method: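 NMCCC compounds (133 uM) combined with IPBC (0.5 ug/ml) against Saccharomyces cerevisiae BY4743 in YPD, 96-well plates. Growth was read as OD600 at 20 h and expressed as % of the untreated control. Single pass.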

| Structure (SMILES) | growth |
| --- | --- |
| COC(=O)c1c(C)[nH]c(C(=O)CN2CCN(c3nccs3)CC2)c1C + CCCCNC(=O)OCC#CI [3-iodo-2-propynyl butylcarbamate (IPBC)] | 84.5% |
| CC(=O)NC1=CC=C(C=C1)C(=O)CO\C2=C\O\C(=C/C2=O)CN3CCSCC3 + CCCCNC(=O)OCC#CI [3-iodo-2-propynyl butylcarbamate (IPBC)] | 94.5% |
| CN(Cc1cnn(Cc2ccccc2)c1)C(=O)c1cc(Cl)ccc1Cl + CCCCNC(=O)OCC#CI [3-iodo-2-propynyl butylcarbamate (IPBC)] | 91.3% |
| CC1Cc2ccccc2N1C(=O)COC(=O)c1cc(S(=O)(=O)N(C)C)ccc1Cl (centres undefined) + CCCCNC(=O)OCC#CI [3-iodo-2-propynyl butylcarbamate (IPBC)] | 90.3% |
| CCCN(CCC)S(=O)(=O)c1ccc2c(c1)N(CC(=O)OC)C(=O)CS2 + CCCCNC(=O)OCC#CI [3-iodo-2-propynyl butylcarbamate (IPBC)] | 104% |
| CN1\C(=C/C(=N\[S]1(=O)=O)C2=CC=C(C)C=C2)C(=O)NC(C)(C)CO + CCCCNC(=O)OCC#CI [3-iodo-2-propynyl butylcarbamate (IPBC)] | 106% |
| Cc1cc(C)c2c(n1)nn1c(NCC(C)C)cc(C)nc21 + CCCCNC(=O)OCC#CI [3-iodo-2-propynyl butylcarbamate (IPBC)] | 104% |
| CN1\C=C(/C(=O)N(C)C1=O)[S](=O)(=O)NC2(C)CC[S](=O)(=O)C2 (centres undefined) + CCCCNC(=O)OCC#CI [3-iodo-2-propynyl butylcarbamate (IPBC)] | 113% |
| COC(=O)CSc1nc(-c2ccc(F)cc2)cc(C(F)(F)F)n1 + CCCCNC(=O)OCC#CI [3-iodo-2-propynyl butylcarbamate (IPBC)] | 78.3% |
| COc1ccc(CNC(=O)COC(=O)Cc2c(C)nn(C)c2C)cc1 + CCCCNC(=O)OCC#CI [3-iodo-2-propynyl butylcarbamate (IPBC)] | 90.7% |
| CCSc1nnc2c(n1)OC(CC)N(C(C)=O)c1ccccc1-2 (centres undefined) + CCCCNC(=O)OCC#CI [3-iodo-2-propynyl butylcarbamate (IPBC)] | 89.7% |
| CCN(CC)S(=O)(=O)c1c(C)nn(Cc2coc(-c3cccs3)n2)c1C + CCCCNC(=O)OCC#CI [3-iodo-2-propynyl butylcarbamate (IPBC)] | 94.9% |
| CCC1Sc2ccc(S(=O)(=O)CCC(=O)Nc3ccc(C(C)=O)cc3)cc2NC1=O (centres undefined) + CCCCNC(=O)OCC#CI [3-iodo-2-propynyl butylcarbamate (IPBC)] | 106% |
| O=S(=O)(NC1CCCCCC1)c1ccc(-c2ccno2)s1 + CCCCNC(=O)OCC#CI [3-iodo-2-propynyl butylcarbamate (IPBC)] | 80.2% |
| CN(CCO)c1nc2c(c(=O)n(Cc3ccc(Cl)cc3)c(=O)n2C)n1C + CCCCNC(=O)OCC#CI [3-iodo-2-propynyl butylcarbamate (IPBC)] | 108% |
| CCOC(=O)Cc1ccc(NC(=O)NCc2c(C)nn(CC)c2C)cc1 + CCCCNC(=O)OCC#CI [3-iodo-2-propynyl butylcarbamate (IPBC)] | 100% |
| COC1=CC=CC(=C1)C/2=N/[S](=O)(=O)N(C)/C(=C2)C(=O)NC3=C[N](N=C3)C(C)C + CCCCNC(=O)OCC#CI [3-iodo-2-propynyl butylcarbamate (IPBC)] | 107% |
| CCOC(=O)N1CCC(NC(=O)c2cc3cc(Cl)ccc3[nH]2)CC1 + CCCCNC(=O)OCC#CI [3-iodo-2-propynyl butylcarbamate (IPBC)] | 78.9% |
| CC(C)NC(=O)NCCc1nc2cccnc2n1-c1ccccc1 + CCCCNC(=O)OCC#CI [3-iodo-2-propynyl butylcarbamate (IPBC)] | 90% |
| CCOC(=O)c1cnc(SCc2nc(-c3ccccc3)oc2C)nc1N + CCCCNC(=O)OCC#CI [3-iodo-2-propynyl butylcarbamate (IPBC)] | 82.6% |

A second format for part of the listing above.
Structure (SMILES)	growth
Cc1cc(C)c2c(n1)nn1c(NCC(C)C)cc(C)nc21 + CCCCNC(=O)OCC#CI [3-iodo-2-propynyl butylcarbamate (IPBC)]	104%
CN1\C=C(/C(=O)N(C)C1=O)[S](=O)(=O)NC2(C)CC[S](=O)(=O)C2 (centres undefined) + CCCCNC(=O)OCC#CI [3-iodo-2-propynyl butylcarbamate (IPBC)]	113%

Continuation:

| Structure (SMILES) | growth |
| --- | --- |
| CCOC(=O)C(NC(=O)Cc1ccccc1)(Nc1ccc(S(N)(=O)=O)cc1)C(F)(F)F (centres undefined) + CCCCNC(=O)OCC#CI [3-iodo-2-propynyl butylcarbamate (IPBC)] | 97.2% |
| CCOC(=O)c1sc(NC(=O)c2nc3nccc(C)n3n2)nc1C + CCCCNC(=O)OCC#CI [3-iodo-2-propynyl butylcarbamate (IPBC)] | 94.1% |
| Cc1ccccc1-c1nnc(SCC(=O)NCC2CCCO2)o1 (centres undefined) + CCCCNC(=O)OCC#CI [3-iodo-2-propynyl butylcarbamate (IPBC)] | 102% |
| COc1cc(NC(=O)NCc2c(C)nn(C)c2C)cc(OC)c1OC + CCCCNC(=O)OCC#CI [3-iodo-2-propynyl butylcarbamate (IPBC)] | 97.7% |
| CCOc1ccc(CC(=O)NCc2cn3c(C)csc3n2)cc1 + CCCCNC(=O)OCC#CI [3-iodo-2-propynyl butylcarbamate (IPBC)] | 99.5% |
| CN1C(=O)\C=C(CSC2=NN=C(NC3CC3)S2)/N(C)C1=O + CCCCNC(=O)OCC#CI [3-iodo-2-propynyl butylcarbamate (IPBC)] | 110% |
| CCN(CC)C1=CC2=C(C=C1F)C(=O)\C(=C/N2C)[S](=O)(=O)C3=CC=C(C)C=C3 + CCCCNC(=O)OCC#CI [3-iodo-2-propynyl butylcarbamate (IPBC)] | 97.1% |
| O=c1ccc(-c2ccccc2F)nn1C/C=C/c1ccccc1 + CCCCNC(=O)OCC#CI [3-iodo-2-propynyl butylcarbamate (IPBC)] | 87.1% |
| CC(C)(C)c1cc(NC(=O)CSc2nnc(NCCc3cccs3)s2)on1 + CCCCNC(=O)OCC#CI [3-iodo-2-propynyl butylcarbamate (IPBC)] | 82.8% |
| CC(=O)c1ccc(S(=O)(=O)NCc2csc(-c3ccccc3)n2)cc1 + CCCCNC(=O)OCC#CI [3-iodo-2-propynyl butylcarbamate (IPBC)] | 103% |
| NC(=O)NC(CC(=O)OCC(=O)c1ccc(F)cc1)c1ccccc1Cl (centres undefined) + CCCCNC(=O)OCC#CI [3-iodo-2-propynyl butylcarbamate (IPBC)] | 100% |
| COC(=O)\C1=C\N(CC2=CC=CS2)\C=C(/C1C3=CC=CC=C3OC(C)C)C(=O)OC + CCCCNC(=O)OCC#CI [3-iodo-2-propynyl butylcarbamate (IPBC)] | 93.3% |
| CCCNC(=O)Cc1c(C)nc2cc(-c3ccccc3)nn2c1C + CCCCNC(=O)OCC#CI [3-iodo-2-propynyl butylcarbamate (IPBC)] | 86.8% |
| CC1CCN(C(=O)C(NC(=O)NC(C)c2cccs2)c2ccccc2)CC1 (centres undefined) + CCCCNC(=O)OCC#CI [3-iodo-2-propynyl butylcarbamate (IPBC)] | 96.7% |
| Cc1sc2nc(CSC(C)C(=O)OCC(=O)N(C)C)nc(O)c2c1C (centres undefined) + CCCCNC(=O)OCC#CI [3-iodo-2-propynyl butylcarbamate (IPBC)] | 92.7% |
| Cc1c(CCO)c(O)oc2nnc(-c3ccccc3)c1-2 + CCCCNC(=O)OCC#CI [3-iodo-2-propynyl butylcarbamate (IPBC)] | 85.5% |
| CS(=O)(=O)NCCc1ccc(C(=O)OCC(=O)N2CCCc3ccccc32)s1 + CCCCNC(=O)OCC#CI [3-iodo-2-propynyl butylcarbamate (IPBC)] | 103% |
| CCCCS(=O)(=O)Nc1cnn(Cc2ccc(F)cc2)c1 + CCCCNC(=O)OCC#CI [3-iodo-2-propynyl butylcarbamate (IPBC)] | 103% |
| CCOc1ccccc1C(=O)N(Cc1ccc(N(C)C)cc1)c1ccccn1 + CCCCNC(=O)OCC#CI [3-iodo-2-propynyl butylcarbamate (IPBC)] | 114% |
